Binding data for one substance are collected here from article PMC6917645.

Amino acid sequences for entries named in this document (tags omitted).
UniProt P51617: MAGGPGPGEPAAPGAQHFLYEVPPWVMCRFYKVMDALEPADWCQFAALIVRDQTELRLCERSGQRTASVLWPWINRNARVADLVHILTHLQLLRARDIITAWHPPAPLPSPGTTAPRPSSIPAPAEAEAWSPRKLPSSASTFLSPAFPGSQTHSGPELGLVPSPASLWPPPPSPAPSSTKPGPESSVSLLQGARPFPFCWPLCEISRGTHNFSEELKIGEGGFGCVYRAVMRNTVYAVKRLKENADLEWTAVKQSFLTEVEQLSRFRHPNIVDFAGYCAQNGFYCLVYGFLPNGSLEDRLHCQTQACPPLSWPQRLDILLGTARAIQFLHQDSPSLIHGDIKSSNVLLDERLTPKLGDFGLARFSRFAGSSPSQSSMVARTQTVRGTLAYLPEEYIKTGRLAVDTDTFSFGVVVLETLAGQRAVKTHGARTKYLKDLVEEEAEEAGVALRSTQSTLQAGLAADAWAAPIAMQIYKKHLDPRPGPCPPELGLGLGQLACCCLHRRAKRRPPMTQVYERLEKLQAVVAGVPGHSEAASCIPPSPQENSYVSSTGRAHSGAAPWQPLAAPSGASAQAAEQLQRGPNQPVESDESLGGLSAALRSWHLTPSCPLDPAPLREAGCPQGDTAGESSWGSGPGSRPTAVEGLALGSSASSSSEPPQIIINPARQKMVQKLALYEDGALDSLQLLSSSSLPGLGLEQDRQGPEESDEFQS

Results are given in words; binding and its absence hold for the method and conditions named. In cells and extracts the contact can be indirect. Some binding calls cover weakened binding; strength is not graded here. Tags and fused reporters may be left off the sequences shown.

For this test, the target named is T1, Viperin-Flag (UniProt Q8WXG1).
T1 sequence: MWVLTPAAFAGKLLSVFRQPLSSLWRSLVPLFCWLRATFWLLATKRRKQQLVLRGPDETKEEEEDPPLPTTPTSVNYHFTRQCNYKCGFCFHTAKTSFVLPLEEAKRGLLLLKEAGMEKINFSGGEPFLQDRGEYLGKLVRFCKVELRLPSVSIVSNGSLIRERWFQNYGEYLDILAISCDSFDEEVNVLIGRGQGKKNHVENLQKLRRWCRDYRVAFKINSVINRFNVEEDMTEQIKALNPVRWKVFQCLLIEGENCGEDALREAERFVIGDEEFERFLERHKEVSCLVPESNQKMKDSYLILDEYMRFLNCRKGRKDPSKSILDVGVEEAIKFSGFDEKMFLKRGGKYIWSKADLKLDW
Description: co-IP; HEK293T co-transfected for 24 h, RIPA lysate; IP with mouse anti-Flag or anti-Myc mAb (or control mouse IgG) and protein A/G PLUS-Agarose at 4°C overnight; washes with lysis buffer with 500 mM NaCl; immunoblot; some samples co-expressed gD-EYFP, EYFP control or Viperin-Flag. A general note: Immunoblotting shows a protein as a band on a membrane.

In the case of IRAK1-HA (from UniProt P51617 1-712), the binding entry is “binds”.
